Source: PubChem BioAssay AID330 (DTP/NCI, 2004)
The list is a part of this screen's results and no random one: it gathers tests that were run many times, whatever their T/C, doses with no T/C, and many T/C values between a quarter and a half above the control. Other doses and runs of a compound stand elsewhere. T/C is the treated group as % of the vehicle group. Some doses have a count of surviving animals in place of a T/C: the source holds a T/C of zero for them, seemingly a mark for toxic or unscored doses. Some survivor counts are full or nearly so, which does not show that the dose was tolerated: the source hardly ever lists a survival T/C far under the control, and the zero likely stands for such cases as well. Counts of survivors are from the toxicity check (mostly the fifth day) where no day follows; animals may have died later. Schedule codes are those of the source, read here as Q, the interval in days (D) or hours (H), X, the number of doses. For survival time, the PubChem record calls one and a half times the control and up active, and a quarter to a half above the control has no call in these data; cut-offs in other NCI protocols can differ. Some T/C values are followed by the survivors on the day toxicity was checked, most often the fifth; where none is given, no animal had died by that day. Some entries were tested several times; their values stand side by side, smallest first.

Tested on: P388 leukemia ip, CD2F1 mice, survival T/C
Assay: NCI In Vivo Anticancer Drug Screen. Data for tumor model P388 Leukemia (intraperitoneal) in CD2F1 (CDF1) mice
Settings: T/C endpoint: median survival time, higher T/C = longer survival
[1] = dose: 200.0 mg/kg/injection, schedule: Q04DX002 (ip), vehicle: Klucel (hydroxypropylcellulose) (HPC)
[2] = dose: 100.0 mg/kg/injection, schedule: Q01DX005 (ip), vehicle: saline with Tween-80
[3] = dose: 200.0 mg/kg/injection, schedule: Q01DX005 (ip), vehicle: saline with Tween-80
[4] = dose: 25.0 mg/kg/injection, schedule: Q01DX005 (ip), vehicle: Klucel (hydroxypropylcellulose) (HPC)
[5] = dose: 50.0 mg/kg/injection, schedule: Q01DX005 (ip), vehicle: Klucel (hydroxypropylcellulose) (HPC)
[6] = dose: 100.0 mg/kg/injection, schedule: Q01DX005 (ip), vehicle: Klucel (hydroxypropylcellulose) (HPC)
[7] = dose: 200.0 mg/kg/injection, schedule: Q01DX005 (ip), vehicle: Klucel (hydroxypropylcellulose) (HPC)
[8] = dose: 50.0 mg/kg/injection, schedule: Q01DX005 (ip), vehicle: saline with Tween-80

Compound: N#CC(OC(=O)c1cccc(C(=O)OC(C#N)(C(F)(F)F)C(F)(F)F)c1Sc1ccccc1)(C(F)(F)F)C(F)(F)F
- survivor count [1]: 1 of 6

Compound: CCC12CCCN3CCc4c(n(c5ccc(Br)cc45)C(=O)CC1)C32 (stereo not given)
- survivor count [2]: 6 of 6
- survivor count [3]: 6 of 6

Compound: N[C@@]1(C(F)(F)F)N[C@](N)(C(F)(F)F)C(F)(F)C(F)(F)C1(F)F
- survivor count [4]: 4 of 5
- survivor count [5]: 0 of 5
- survivor count [6]: 0 of 5
- survivor count [7]: 0 of 5

Compound: O=C1CN(c2ccc(Cl)cc2)C(=O)CN1/N=C/c1ccc(O)c(O)c1
- survivor count [3]: 6 of 6

Compound: NS(=O)(=O)c1ccc(C(=O)O)s1
- survivor count [3]: 6 of 6

Compound: CSCCCCN=[N+]=[N-]
- survivor count (dose: 240.0 mg/kg/injection, schedule: Q01DX005 (ip), vehicle: saline): 0 of 6

Compound: COc1cc(C(C)c2cc3c(cc2OCCO)OCO3)cc(OC)c1OC (stereo not given)
- T/C [8]: 98, 102, 104, 109 % of control
- T/C [2]: 106, 110, 114, 135 % of control
- T/C [3]: 114, 150, 151 [5 of 6 alive], 166 % of control
- T/C (dose: 400.0 mg/kg/injection, schedule: Q01DX005 (ip), vehicle: saline with Tween-80): 149 % of control

Compound: CC(=O)[O][Pb]([O]C(C)=O)([c]1ccccc1)[c]1ccccc1
- T/C (dose: 26.6 mg/kg/injection, schedule: Q01DX009 (ip), vehicle: saline with Tween-80): 126 % of control [5 of 6 alive]
- T/C (dose: 60.0 mg/kg/injection, schedule: Q01DX009 (ip), vehicle: saline with Tween-80): 140 % of control
- T/C (dose: 100.0 mg/kg/injection, schedule: Q01DX009 (ip), vehicle: Klucel (hydroxypropylcellulose) (HPC)): 131 % of control [5 of 6 alive]

Compound: COc1ccc(OC)c(C2N(Cc3ccc(N(C)C)cc3)CCCN2Cc2ccc(N(C)C)cc2)c1
- survivor count (dose: 200.0 mg/kg/injection, schedule: Q04DX003 (ip), vehicle: saline with Tween-80): 6 of 6

Compound: CC(=O)OC1=C(Br)CCc2ccccc21
- survivor count (dose: 50.0 mg/kg/injection, schedule: Q01DX009 (ip), vehicle: DMSO): 4 of 6

Compound: C=CCC(CC)(C(=O)Nc1ccc2nc(C)cc(N)c2c1)C(=O)Nc1ccc2nc(C)cc(N)c2c1
- survivor count (dose: 25.0 mg/kg/injection, schedule: Q01DX005 (ip), vehicle: saline with Tween-80): 6 of 6
- survivor count [8]: 5 of 5

Compound: COc1ccccc1-n1c(=S)n(-c2ccccc2C)c2nc3ccccc3nc1/c2=N\Nc1ccccn1
- survivor count [3]: 0 of 6

Compound: Cc1noc(NS(=O)(=O)c2ccc(N=Nc3cc(N=Nc4ccc(S(=O)(=O)Nc5onc(C)c5C)cc4)c4c(NC(=O)C(Cl)Cl)cccc4c3OC(=O)C(Cl)Cl)cc2)c1C
- survivor count (dose: 200.0 mg/kg/injection, schedule: Q01DX009 (ip), vehicle: saline with Tween-80): 2 of 6

Compound: CCCCCCCNC1=C(N2CC2)C(=O)C(NCCCCCCC)=C(N2CC2)C1=O
- survivor count (dose: 1.25 mg/kg/injection, schedule: Q01DX009 (ip), vehicle: saline): 0 of 6

Compound: O=C1C(c2ccccc2)=C(c2ccccc2)C2(c3ccccc3)C=NNC12c1ccccc1 (stereo not given)
- survivor count [4]: 5 of 5
- survivor count (dose: 100.0 mg/kg/injection, schedule: Q04DX002 (ip), vehicle: Klucel (hydroxypropylcellulose) (HPC)): 6 of 6
- survivor count [1]: 4 of 6
- survivor count (dose: 400.0 mg/kg/injection, schedule: Q04DX002 (ip), vehicle: Klucel (hydroxypropylcellulose) (HPC)): 0 of 6

Compound: C/C(=N\Nc1ccc([N+](=O)[O-])cc1[N+](=O)[O-])c1ccc[nH]1
- survivor count (dose: 60.0 mg/kg/injection, schedule: Q01DX005 (ip), vehicle: saline with Tween-80): 6 of 6
- survivor count (dose: 120.0 mg/kg/injection, schedule: Q01DX005 (ip), vehicle: saline with Tween-80): 6 of 6
- survivor count (dose: 240.0 mg/kg/injection, schedule: Q01DX005 (ip), vehicle: saline with Tween-80): 6 of 6

Compound: CC(/C=N/Nc1ccccc1)=N\N=c1/scc(-c2ccc(Br)cc2)n1-c1ccc(Cl)cc1
- survivor count (dose: 100.0 mg/kg/injection, schedule: Q01DX001 (ip), vehicle: saline with Tween-80): 6 of 6
- survivor count (dose: 200.0 mg/kg/injection, schedule: Q01DX001 (ip), vehicle: saline with Tween-80): 6 of 6
- survivor count (dose: 400.0 mg/kg/injection, schedule: Q01DX001 (ip), vehicle: saline with Tween-80): 6 of 6

Compound: CCCCOC(=O)c1ccc(NC(=O)Nc2ccccc2OC)cc1
- survivor count (dose: 100.0 mg/kg/injection, schedule: Q04DX003 (ip), vehicle: saline with Tween-80): 6 of 6

Compound: CC(C)=NO
- survivor count (dose: 400.0 mg/kg/injection, schedule: Q01DX009 (ip), vehicle: saline): 0 of 6

Compound: CC(=O)C1=C(O)/C(=C\c2ccccc2)OC1=O
- survivor count (dose: 200.0 mg/kg/injection, schedule: Q01DX009 (ip), vehicle: Klucel (hydroxypropylcellulose) (HPC)): 0 of 6

Compound: CC(C)(C)NCC(CN1CCOCC1)C(=O)c1ccccc1 (stereo not given)
- survivor count [4]: 3 of 6
- survivor count [5]: 1 of 6
- survivor count [6]: 0 of 6
- survivor count [7]: 0 of 6

Compound: Cc1cccc(/C=C/C(=O)C(CN(C)C)CN(C)C)c1
- survivor count [4]: 0 of 6
- survivor count [5]: 0 of 6
- survivor count [6]: 0 of 6
- survivor count [7]: 0 of 6
